Values from PubChem BioAssay AID686938 (Drosophila RNAi Screening Center, 2013).

- Aim: 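Looking for CRAC channel components and the factors controlling them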 (primary screen)
- Cell system: Drosophila S2R+ cells
- Knock-down reagent: long dsRNA against Drosophila genes, about 0.25 µg dsRNA per well, roughly 10,000 cells
- Timing: 5 days of knock-down before the calcium assay
- Conditions: thapsigargin (SERCA pump blocker) to empty calcium stores; entry signal taken 4 min after adding it
- Measurement: 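Duplicate raw fluo-4 intensities per well from a plate reader, at rest and four minutes after thapsigargin emptied calcium stores; entry-to-rest ratio filled for only some wells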
- Direction: calcium entry signal: higher = stronger calcium signal after store depletion; entry to resting ratio: higher = more calcium entry relative to resting level; resting calcium signal: higher = higher resting calcium signal
- Hit rule: 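Hit if the duplicate-averaged plate z-score for entry over resting signal is under −3; wells with weak total dye signal (Fmax z < −2) or more than 5 off-targets removed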
- Meaning of the calls: active = strongly reduced calcium entry; inactive = no strong reduction
In all, the deposit lists about 23,000 reagents; this is an unselected part of those that have a named target and a result. Over the whole deposit, 75 (0.33%) got an active call. 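Raw plate signals without normalisation; calls rest on plate z-scores that were not deposited; ratio present for only 364 wells.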 Unmarked entries are inactive. Names joined by + are all predicted targets of the reagent. Not stated in the record: the dose of the treatment.

no.	gene knocked down	DRSC id	calcium entry signal, replicate 1 (fluorescence units)	calcium entry signal, replicate 2 (fluorescence units)	entry to resting ratio	resting calcium signal, replicate 1 (fluorescence units)	resting calcium signal, replicate 2 (fluorescence units)
1	CG30075	DRSC05484	4.90e7	4.83e7		2.69e7	2.04e7
2	ACXA (Adenylyl cyclase X A)	DRSC00844	4.97e7	3.17e7		2.18e7	1.44e7
3	Phf5a (PHD finger protein 5a)	DRSC03261	1.49e7 (active)	1.67e7		9.71e6	1.03e7
4	olf186-M	DRSC07657	4.53e7	4.06e7		1.84e7	1.97e7
5	CG17364	DRSC10269	3.18e7	2.77e7		1.81e7	1.37e7
6	CG17364	DRSC10270	2.69e7	5.04e7		1.46e7	2.72e7
7	CG17364	DRSC22689	3.28e7	3.93e7		1.42e7	1.63e7
8	CG14434	DRSC17927	2.85e7	3.69e7		1.54e7	1.74e7
9	CG31792	DRSC02604	3.85e7	4.08e7		1.80e7	1.75e7
10	TBC1d7 (TBC1 domain family member 7)	DRSC15985	4.68e7	6.22e7		2.49e7	2.81e7
11	Pex5 (Peroxin 5)	DRSC18552	2.74e7	5.52e7	1.9	1.42e7	2.04e7
12	CG3793	DRSC01982	5.07e7			2.62e7	
13	CR12628 + Mgstl	DRSC03702	3.99e7	4.60e7		2.08e7	2.23e7
14	CR12628 + Mgstl	DRSC20568	5.25e7	4.92e7		2.63e7	1.89e7
15	CG16723	DRSC15138	3.83e7	4.59e7		1.82e7	1.88e7
16	Nse4 (Non-SMC element 4)	DRSC02239	4.74e7	5.86e7		2.17e7	2.43e7
17	CG9903	DRSC20213	3.33e7	2.68e7		1.60e7	1.19e7
18	CG4546	DRSC15593	4.42e7	5.46e7		1.90e7	6.87e7
19	Synj (Synaptojanin)	DRSC04526	3.32e7			1.48e7	
20	CG17167	DRSC20902	2.92e7	4.05e7		1.52e7	1.66e7
21	CG17167	DRSC20903	3.69e7	3.20e7		1.74e7	1.52e7
22	CG31674	DRSC03208	3.42e7	5.78e7		1.60e7	2.09e7
23	CG31697	DRSC22273	2.51e7	2.94e7		1.23e7	1.50e7
24	mRpL1 (mitochondrial ribosomal protein L1)	DRSC16251	5.43e7	4.85e7		2.33e7	1.82e7
25	Bem46	DRSC00275	2.42e7	2.77e7		1.28e7	1.20e7
26	HSPBAP1 (HSPB1 associated protein 1)	DRSC14567	2.47e7	4.04e7		1.24e7	1.56e7
27	CG5793 + Obp93a	DRSC15220	3.29e7	3.65e7		6.18e7	1.66e7
28	FMRFa (FMRFamide)	DRSC07428	2.99e7	2.89e7		1.40e7	1.41e7
29	Wdfy2 (WD repeat and FYVE domain containing 2)	DRSC02822	3.85e7			2.13e7	
30	CG15020	DRSC08474	1.99e7	2.88e7		9.72e6	1.23e7
31	asRNA:CR30267 (antisense RNA:CR30267)	DRSC21628	3.21e7	3.97e7		1.86e7	1.88e7
32	Liprin-gamma	DRSC04093	5.59e7	3.44e7		2.75e7	1.79e7
33	Gr93b (Gustatory receptor 93b)	DRSC22063	3.48e7	5.11e7		1.71e7	2.35e7
34	vimar (visceral mesodermal armadillo-repeats)	DRSC05026	4.07e7			2.08e7	
35	CCT6 (Chaperonin containing TCP1 subunit 6)	DRSC20095	2.70e7	2.44e7		1.53e7	1.41e7
36	CG13295	DRSC09969	2.57e7	3.04e7		1.17e7	1.18e7
37	CG42380 + CG42379 + PIG-M + 1 more	DRSC03884	3.01e7	4.96e7		1.50e7	4.89e7
38	CG42380 + CG42379 + PIG-M + 1 more	DRSC04580	2.70e7			1.44e7	
39	eIF3m (eukaryotic translation initiation factor 3 subunit m)	DRSC07142	1.86e7	2.71e7		1.17e7	1.84e7
40	ncm (nucampholin)	DRSC02179	1.04e7 (active)			8.21e6	
41	gbb (glass bottom boat)	DRSC04687	4.52e7	4.91e7		2.24e7	2.22e7
42	CG15034	DRSC17966	3.56e7	3.76e7		1.80e7	1.78e7
43	CG12126	DRSC06103	2.81e7	3.58e7		1.33e7	1.46e7
44	VhaAC45RP (VhaAC45-related protein)	DRSC15423	5.27e7	2.92e7		2.57e7	1.61e7
45	aralar1	DRSC13987	3.59e7	2.74e7		1.67e7	1.16e7
46	aralar1	DRSC16901	3.02e7	4.02e7		1.62e7	1.86e7
47	CG9988	DRSC16587	4.14e7	5.95e7		2.19e7	2.66e7
48	CG9269	DRSC16465	3.46e7	3.82e7		1.59e7	3.87e6
49	CG33460	DRSC05570	5.99e7	4.56e7		2.64e7	1.82e7
50	nvy (nervy)	DRSC04705	4.00e7	4.51e7		1.90e7	2.03e7
51	jing	DRSC04923	4.89e7	3.89e7		2.48e7	1.88e7
52	jing	DRSC04927	3.28e7	5.92e7		1.74e7	2.47e7
53	jing	DRSC05000	3.63e7			1.67e7	
54	yem (yemanuclein)	DRSC14865	3.63e7	5.86e7		1.77e7	2.39e7
55	yem (yemanuclein)	DRSC17097	3.48e7	5.15e7		1.71e7	2.26e7
56	CG31870	DRSC21681	3.90e7	4.50e7		2.17e7	1.93e7
57	MP1 (Melanization Protease 1)	DRSC12124	3.41e7	5.54e7		1.69e7	2.47e7
58	Pros28.2 (retired record)	DRSC16800	4.36e7	4.70e7		6.21e7	2.26e7
59	CG13028	DRSC09908	3.88e7	6.52e7		1.90e7	2.35e7
60	Act42A (Actin 42A)	DRSC04835	3.73e7	3.77e7		1.89e7	1.79e7
61	CatB (Catalase B)	DRSC03194	4.58e7			2.04e7	
62	CG14506	DRSC14858	3.23e7	4.64e7		1.57e7	1.93e7
63	Prosalpha7 (Proteasome alpha7 subunit)	DRSC07516	2.35e7	1.90e7		1.48e7	1.33e7
64	CG11192	DRSC06057	4.55e7	4.11e7		3.66e7	2.18e7
65	CG3119	DRSC00569	3.08e7	3.88e7		1.56e7	1.66e7
66	CAH5 (Carbonic anhydrase 5)	DRSC15372	2.86e7	5.76e7		1.53e7	2.26e7
67	holn1 (hole-in-one)	DRSC02827	4.01e7			2.18e7	
68	holn1 (hole-in-one)	DRSC22822	3.48e7	3.29e7		1.69e7	1.58e7
69	CG45002	DRSC20144	3.55e7	3.39e7		1.97e7	1.69e7
70	CG15614	DRSC06567	3.59e7	5.03e7		1.76e7	2.28e7
71	Pgi (Phosphoglucose isomerase)	DRSC07507	4.44e7	3.97e7		2.11e7	2.15e7
72	CG5181	DRSC02825	4.49e7			2.04e7	
73	CSN8 (COP9 signalosome subunit 8)	DRSC02257	4.39e7			2.51e7	
74	CG5388	DRSC15789	5.39e7	5.07e7		4.48e7	2.09e7
75	RalGPS (Ral GEF with PH domain and SH3 binding motif)	DRSC06941	4.43e7	4.14e7		1.95e7	2.03e7

Entries listed so far whose gene name begins with A or a:
gene knocked down	DRSC id	calcium entry signal, replicate 1 (fluorescence units)	calcium entry signal, replicate 2 (fluorescence units)	entry to resting ratio	resting calcium signal, replicate 1 (fluorescence units)	resting calcium signal, replicate 2 (fluorescence units)
ACXA (Adenylyl cyclase X A)	DRSC00844	4.97e7	3.17e7		2.18e7	1.44e7
asRNA:CR30267 (antisense RNA:CR30267)	DRSC21628	3.21e7	3.97e7		1.86e7	1.88e7
aralar1	DRSC13987	3.59e7	2.74e7		1.67e7	1.16e7
aralar1	DRSC16901	3.02e7	4.02e7		1.62e7	1.86e7
Act42A (Actin 42A)	DRSC04835	3.73e7	3.77e7		1.89e7	1.79e7
